Results from PMC4057782.

Chains of the proteins cited; added tags and fusions are not shown. Lines headed by an entry give the natural chain unless they say otherwise; changes in a name come on top.
UniProt P49591: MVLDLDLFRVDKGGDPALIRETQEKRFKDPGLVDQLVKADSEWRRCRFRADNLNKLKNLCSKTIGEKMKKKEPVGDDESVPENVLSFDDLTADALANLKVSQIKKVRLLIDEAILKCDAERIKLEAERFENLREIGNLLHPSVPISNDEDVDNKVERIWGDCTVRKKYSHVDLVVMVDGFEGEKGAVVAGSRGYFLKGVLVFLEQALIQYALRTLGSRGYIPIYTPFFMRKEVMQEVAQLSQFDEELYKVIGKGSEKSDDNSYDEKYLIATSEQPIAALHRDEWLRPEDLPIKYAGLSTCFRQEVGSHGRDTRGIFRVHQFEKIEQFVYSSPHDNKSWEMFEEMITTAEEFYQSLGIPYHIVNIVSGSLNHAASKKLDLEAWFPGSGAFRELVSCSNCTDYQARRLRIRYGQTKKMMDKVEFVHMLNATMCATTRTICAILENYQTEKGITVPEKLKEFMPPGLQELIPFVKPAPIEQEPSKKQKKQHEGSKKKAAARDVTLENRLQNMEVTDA

Experiments:
[1] = target: SerRS delta TBD (Homo sapiens) (UniProt P49591); assay: EMSA; details: dramatically weakened or abolished; EMSA: 20 mM Tris-HCl pH 8.0, 60 mM KCl, 5 mM MgCl2, 0.1 mg/ml BSA, 10 ng/ul poly(dG-dC), 1 mM DTT, 30 min, room temperature; recombinant protein; label: 5' 32P; letters put together from the description
[2] = test system: SerRS delta UNE-S (Homo sapiens); assay: EMSA; details: dramatically weakened or abolished; EMSA: 20 mM Tris-HCl pH 8.0, 60 mM KCl, 5 mM MgCl2, 0.1 mg/ml BSA, 10 ng/ul poly(dG-dC), 1 mM DTT, 30 min, room temperature; recombinant protein; label: 5' 32P; letters put together from the description

GGCGGGGCGGAGCCATGCGCCCCCCCC (double strand) [VEGFA promoter 27-bp (-62 to -36)]
binding result [1]: binds more weakly
binding result [2]: binds more weakly

The exact form of at least one protein or probe is not confirmed. A weaker result is weaker than the reference pair of the same experiment. At least one verdict rests on a figure or table, not on a statement of the authors.
